Values quoted from earlier work in patent US8551479B2, “Methods for treating melanoma” (OncoMed Pharmaceuticals, Inc., priority 2010, dated 2013).
Some results were stated once for a whole list of compounds, not compound by compound. At least one compound was matched to its structure with a doubt left.

Test system: advanced melanoma
Settings: background statement, as of 2010; cited from earlier work

Compound: CN(C)/N=N/c1[nH]cnc1C(N)=O [dacarbazine]
- patients with advanced melanoma that respond: 10-20%

Compound: interferon-alpha
- patients with advanced melanoma that respond: 10-20%
